# Reference: patent US20050069948A1, “Screening method” (priority 2002, published 2005)
# For at least one compound, name, drawing or mass did not settle the structure.
# Test system: Egr-1 mRNA
# Assay: Egr-1 mRNA expression in rat glomerular mesangial cells after FCS or AII stimulus (RT-PCR)
# Format: cell-based
# Conditions: 30 minutes after FCS (20%) stimulus; Candesartan 10^−5 M added 5 minutes before; relative value, before stimulus = 1; n = 3, Mean; listed as candesartan
# Experimental: Glomerular mesangial cells ([…] 7) isolated and cultivated from a male Sprague-Dawley rat (SD rat, Japan Crea) of the age of 4 weeks were cultivated in DMEM medium containing 20% fetal calf serum (FCS) for 4 days, and then the cells were cultivated in DMEM containing 0.2% bovine serum albumin for 3 days. To the cells after cultivation, FCS (20%) or angiotensin II (AII) (10^-6M) was added, and then the resulting mixture was reacted at 37° C. for 30 minutes. The AII type I receptor antagonist Candesartan of 10^-5 M as the final concentration was added to the medium 5 minutes prior to the stimulation of FCS or AII. Thirty minutes after FCS or AII stimulus, total RNA was extracted. The primers and fluorescent probe were prepared on the basis of the mRNA sequence previously reported, and subsequently the level of Egr-1 mRNA expression was determined using ABI PRISM 7700 (Applied Biosystems) by the real time quantitative RT-PCR method.
smiles,measurement,value
CCOc1nc2cccc(C(=O)O)c2n1Cc1ccc(-c2ccccc2-c2nnn[nH]2)cc1 [Candesartan],Egr-1 mRNA expression level,partially inhibited
